Over roughly 3,200 compounds, “TSA(with NAD+) / Primary screening (TSA) / delta Tm (K)” has its median near -0.04; the highest 2% begin near 0.37. The list shows a part of the results.
These compounds were tested against NAD-dependent deacetylase Sirtuin 1 (human, UniProt Q96EB6) (assay: primary screen, delta tm). Conditions: 10 µM.
Design: single well (n = 1, as 'the same TSA')

Sequences of proteins named here, by UniProt entry; tags and fusion partners are left off. Residues count along the entry.
UniProt Q96EB6, 2-747 limits assumed: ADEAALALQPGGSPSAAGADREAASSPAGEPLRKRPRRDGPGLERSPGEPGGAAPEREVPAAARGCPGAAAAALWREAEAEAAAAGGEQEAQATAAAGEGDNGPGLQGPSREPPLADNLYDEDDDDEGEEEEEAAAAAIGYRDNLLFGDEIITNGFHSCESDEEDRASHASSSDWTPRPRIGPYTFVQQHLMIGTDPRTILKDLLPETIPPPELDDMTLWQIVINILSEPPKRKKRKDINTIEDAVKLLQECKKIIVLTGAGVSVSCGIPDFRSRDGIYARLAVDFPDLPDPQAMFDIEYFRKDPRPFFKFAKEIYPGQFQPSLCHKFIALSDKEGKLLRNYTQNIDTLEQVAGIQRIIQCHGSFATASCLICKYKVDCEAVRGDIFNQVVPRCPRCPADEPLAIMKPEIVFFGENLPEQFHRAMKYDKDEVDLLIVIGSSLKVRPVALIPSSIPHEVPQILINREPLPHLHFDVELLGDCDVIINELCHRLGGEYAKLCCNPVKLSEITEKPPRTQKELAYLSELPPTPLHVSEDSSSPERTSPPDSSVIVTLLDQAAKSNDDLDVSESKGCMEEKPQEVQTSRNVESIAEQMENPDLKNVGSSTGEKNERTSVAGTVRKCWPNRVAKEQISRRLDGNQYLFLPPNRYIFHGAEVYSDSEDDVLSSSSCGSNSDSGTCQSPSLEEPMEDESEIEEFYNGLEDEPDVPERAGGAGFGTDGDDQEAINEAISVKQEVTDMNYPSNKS

SMILES | TSA(with NAD+) / Primary screening (TSA) / delta Tm (K)
COc1ccc(S(=O)(=O)N2CCOCC2)cc1NC(=O)c1ccccc1SCC(=O)NC12CC3CC(CC(C3)C1)C2 | -0.05
Cc1cc(C)cc(C(=O)Nc2cccc(S(=O)(=O)N3CCCCCC3)c2)c1 | 0.15
CN(C)C(=O)CCNc1ncnc2ccsc12 | -0.16
CN(Cc1nc2ccccc2s1)C(=O)CSc1nnc(C2COc3ccccc3O2)o1 (stereo not drawn) | -0.16
CN(c1cccnc1)S(=O)(=O)c1cccc(-n2cnnn2)c1 | 0.05
Cc1ccc(C23CC4CC(CC(C(=O)OCC(=O)Nc5ccc(S(N)(=O)=O)cc5)(C4)C2)C3)cc1 | 0.29
O=C1CCC(=O)N(c2ccc(C(=O)NC34CC5CC(CC(C5)C3)C4)cc2)N1 | 0.11
COc1ccc(CCSc2nc3ccsc3c(=O)n2C)cc1 | -0.03
COc1ccc(-c2noc(CN3CCN(c4ncnc5scc(-c6ccccc6)c45)CC3)n2)cc1 | -0.16
c1nc(N2CCN(Cc3csc(-c4ccsc4)n3)CC2)c2c3c(sc2n1)CCCC3 | 0.05
COc1ccc(N(C)S(=O)(=O)c2cccc(C(=O)Nc3cccc(Br)c3)c2)cc1 | 0.32
O=C1NC(=O)C(c2ccccc2)(C(F)(F)F)N1 (stereo not drawn) | -0.16
COc1ccc(C(=O)C2=C(O)C(=O)N(CCN3CCOCC3)C2c2ccc(Cl)cc2)c(O)c1 (stereo not drawn) | -0.04
NC(=O)N(Cc1ccccc1)Cc1ccccc1 | -0.11
CC(OC(=O)Cc1c[nH]c2ccccc12)C(=O)Nc1ccc(C(N)=O)cc1 (stereo not drawn) | 0.12
CN(c1cccc(Cl)c1)S(=O)(=O)c1cccc(C(=O)Nc2sccc2C(N)=O)c1 | 0.22
COc1ccc(NC(=O)c2cccc(S(=O)(=O)NC(C)C34CC5CC(CC(C5)C3)C4)c2)cc1S(=O)(=O)N1CCOCC1 (stereo not drawn) | 0.32
CN(CC(=O)NCc1ccco1)CC(=O)Nc1nc(-c2c[nH]c3ccccc23)cs1 | -0.23
O=C1NC(=S)NC(=O)C1=NNc1cccc(OC(F)F)c1 | -0.04
Cc1ccc(OCc2nnc(SCc3ccccc3)n2N)c(C)c1 | 0.03
COc1ccc(C(=O)C2=C(O)C(=O)N(CCCN3CCOCC3)C2c2ccc(Cl)cc2)cc1C (stereo not drawn) | -0.08
CCOC(C)CN (stereo not drawn) | -0.16
COC(=O)CSc1nc2ccc(OC)cc2[nH]1 | 0.02

SMILES | TSA(with NAD+) / Primary screening (TSA) / delta Tm (K)
Cc1ccc(Oc2ccc(NC(=O)c3cncc(Br)c3)cc2)cc1 | -0.26
NC(=O)c1csc(C(=O)NCc2ccn(-c3ccccc3F)n2)c1 | -0.08
Cc1cc2occ(CC(=O)N3CCC(C(N)=O)C3)c2cc1C(C)C (stereo not drawn) | 0.08
Cc1nc2c3ccccc3nc(SCC(=O)Nc3cc(C(F)(F)F)ccc3-n3cncn3)n2n1 | -0.03
CC(=O)OCC1OC(COc2ccc(C(=O)Cc3csc(-c4ccccc4)n3)c(O)c2)C(OC(C)=O)C(OC(C)=O)C1OC(C)=O (stereo not drawn) | -0.09
Cc1ccccc1N1C(=O)c2ccc(C(=O)NCC34CC5CC(CC(C5)C3)C4)cc2C1=O | 0.26
Cc1cc(=O)oc2cc(OCC(=O)NC3CCC4CCCCC4C3)ccc12 (stereo not drawn) | 0.05
O=C(COC(=O)c1cccc(NS(=O)(=O)/C=C/c2ccccc2)c1)NC12CC3CC(CC(C3)C1)C2 | -0.01
Cc1ccc(NC(=O)CN2CSCC2=O)c(OCCN(C)C)c1 | 0.09
CCOCC(O)CN (stereo not drawn) | 0.02
CC1CCc2[nH]c3ccc(C(=O)Nc4cccc(S(=O)(=O)N(C)c5ccccc5)c4)cc3c2C1 (stereo not drawn) | 0.39
O=C(NNC1c2ccccc2-c2ccccc21)C1COc2ccccc2O1 (stereo not drawn) | 0.06
Cc1ccc2nc(C)c(C(=O)Nc3cccc(-c4nnn[nH]4)c3)cc2c1 | -0.18
c1ccc(-c2[nH]c3ccccc3c2-c2ccccc2)cc1 | 0.39
COc1cccc(-c2noc(COC(=O)C3CCCN3C(=O)C34CC5CC(CC(C5)C3)C4)n2)c1 (stereo not drawn) | 0.03
COCCN(C)Cc1ccc(-c2cccc(F)c2C)o1 | -0.11
Cc1ccc(-c2nn(-c3ccccc3)cc2C=C2C(=O)NC(=O)NC2=O)o1 | -0.59
OC1CCCCC1Nc1cnc2ccccc2n1 (stereo not drawn) | 0.08
NC(=O)C(NC(=O)COc1ccc(C(=O)c2ccccc2)cc1)C(N)=O | -0.03
Cc1nc(-c2ccccn2)nc(N2CCCC(C(N)=O)C2)c1C (stereo not drawn) | -0.06
NC(=S)c1ccc(C(=O)NC2CCSc3c(F)cccc32)cc1 (stereo not drawn) | -0.23
CCCCn1c(COc2ccc(N(C)S(=O)(=O)c3ccc(C)cc3)cc2)nc2cc(S(N)(=O)=O)ccc21 | -0.03

Reprinted at random: three records from the list
SMILES | TSA(with NAD+) / Primary screening (TSA) / delta Tm (K)
Cc1ccc2nc(C)c(C(=O)Nc3cccc(-c4nnn[nH]4)c3)cc2c1 | -0.18
NC(=O)c1csc(C(=O)NCc2ccn(-c3ccccc3F)n2)c1 | -0.08
Cc1ccccc1N1C(=O)c2ccc(C(=O)NCC34CC5CC(CC(C5)C3)C4)cc2C1=O | 0.26
